According to publication PMC4822341 (Cell Discovery, 2015):

Tested on: RAW264.7 cells
Experiment: Gene expression (microarray and quantitative PCR) in LPS-stimulated RAW264.7 cells
Type: cell-based, mouse
Conditions: RAW264.7, LPS 1 μg ml^-1, steroid 100 nM, microarray
Description: Mouse macrophage RAW264.7 cells were grown in 6-well plates to reach 80% confluence. The cells were pretreated with different steroids at 100 nM 1 h before overnight induction of inflammation by 1 μg ml^–1 LPS. Total RNA was isolated using a Qiagen mini RNA extraction kit (Valencia, CA, USA). Complementary DNA was synthesized from total RNA with an Invitrogen Superscript cDNA synthesis kit (Carlsbad, CA, USA). Target genes were quantified with a Power SYBR Green Real-Time PCR kit (Carlsbad, CA, USA) (ABI) in a StepOnePlus real-time PCR instrument (Applied Biosystems, Carlsbad, CA, USA). In every case, GAPDH (glyceraldehyde-3-phosphate dehydrogenase) was used as an internal control and data were analyzed by the ΔΔCt method. The specificity of target primers was tested both in a dissociation (melting) curve (Supplementary Figure S4) and against a water control. Primer sequence information is included in Supplementary Figure S4.
RAW264.7 cells were treated with designated steroids at 100 nM 1 h before overnight LPS stimulation of inflammation. Each treatment was duplicated. The following day, RNA samples were isolated using a Qiagen mini RNA extraction kit and applied to the Agilent Whole Mouse Genome 8x60K gene expression platform. Data were analyzed by the limma package in R program. Heat maps were generated by the HeatMap 2 package. […]

C[C@@H]1C[C@H]2[C@@H]3CCC4=CC(=O)C=C[C@]4(C)[C@@]3(F)[C@@H](O)C[C@]2(C)[C@@]1(O)C(=O)CO [DEX, dexamethasone, reference compound]
genes induced more than twofold: 574
genes repressed more than twofold: 710
